# Measured values taken from PubChem BioAssay AID1347075 (National Center for Advancing Translational Sciences (NCATS), 2019).
# Hit rate of the full screen: of about 400,000 compounds, about 5,500 (1.4%) were called active. Inconclusive results, whose numbers are uncertain, are shown with a selection of clear calls. The call rests on the fitted dose curve; in most records, active means well fitted cell-killing curve with a large enough effect; inconclusive means small, poorly fitted or top-dose-only effect, or effect the other way; inactive means flat fitted curve, though single readings scatter. A potency beside an inconclusive call is a rough fit, not a confirmed value.
# Assay: qHTS assay for MDR1-selective chemotherapeutics: Primary screen using the parental adenocarcinoma cell KB-3-1; further: nearly all actives have a fitted effect of over 60% in size
# Conditions: KB-3-1 viability, CellTiter-Glo ATP luminescence, 72 h; activity change, negative = cytotoxic: at 46.1 µM (top of the series)
# In short: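 Using CellTiter-Glo luminescence, growth of non-resistant KB-3-1 adenocarcinoma cells is assessed 72 h after pin-tool compound addition at 37 °C. Normalized responses across the concentration series yield fitted curves.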
# On the % scale 0 is the no-effect control and ±100 the full control effect; potency means the concentration at half of the fitted maximal effect.
Compound,Potency,"activity change, negative = cytotoxic"
O=C(Nc1cccnc1)c1cc(-c2ccc(Cl)cc2)on1,"inconclusive: 0.326 µM [cytotoxic, full curve, poor fit]",
CCn1nc(C)c(CNC(=O)Nc2ccccc2C(=O)OC)c1C,,inconclusive: -5.42%
CCCS(=O)(=O)c1cscc1NC(=O)c1c(-c2c(F)cccc2Cl)noc1C,"inconclusive: 29.1 µM [cytotoxic, single point]",
Cc1nc(NC(C)c2ccccc2)c2oc3ccccc3c2n1 (stereo not given),"inconclusive: 29.1 µM [cytotoxic, single point]",
COc1ccc(C(=O)NC(=S)Nc2ccccc2N2CCCCC2)cc1[N+](=O)[O-],"inconclusive: 29.1 µM [cytotoxic, single point]",
COc1cc(Cn2c(-c3nonc3N)nc3ccccc32)ccc1C,active: 4.61 µM,
Cc1c(NC(=O)c2sc3ccccc3c2Cl)cccc1-c1nc2ccccc2o1,,inactive: 0.352%
CN(O)C(=S)c1ccccc1,active: 0.0052 µM,
N#Cc1ccc(COC(=O)c2cnc(Cl)c(Cl)c2)cc1,"inconclusive: 16.4 µM [rising, partial curve, poor fit]",
O=C(NCc1ccco1)c1cc(S(=O)(=O)N2CCCC2)ccc1Cl,"inconclusive: 29.1 µM [cytotoxic, single point]",
Cc1cc(=O)[nH]c(SCCc2ccccc2)n1,active: 16.4 µM,
CCC1=C[C@@H]2CN(C1)Cc1c([nH]c3ccccc13)[C@@](C(=O)OC)(c1cc3c(cc1OC)N(C)[C@H]1[C@@](O)(C(=O)OC)[C@H](OC(C)=O)[C@]4(CC)C=CCN5CC[C@]31[C@@H]54)C2,active: 0.0291 µM,
Cc1nc2c(C)c(C)c(C)c(C)c2nc1C,,inactive: -8.92%
CCn1cc(C(=O)NCCc2ccc(C)cc2)c(=O)c2cc(S(=O)(=O)N3CCC(C)CC3)ccc21,,inactive: 10.8%
CCOC(=O)[C@@H]1[C@H]2COc3cc(OC)ccc3[C@@H]2N2C(=O)N(c3ccc(C(F)(F)F)cc3)C(=O)[C@@]12C,,inactive: -6.84%
O=C(Nc1ccc2nc3n(c(=O)c2c1)CCCC3)c1cncc(Br)c1,"inconclusive: 13 µM [rising, single point]",
COC(=O)[C@]1(C)N[C@H](CN(C)C(=O)Nc2ccc(Cl)cc2)[C@@H]2C(=O)N(Cc3ccccc3)C(=O)[C@@H]21,,inactive: 3.13%
CCO[C@@H]1OC(C(=O)Nc2ccccc2)=C[C@H](c2ccc(C(F)(F)F)cc2)[C@H]1CCCO,"inconclusive: 29.1 µM [cytotoxic, single point]",
O=C(OCCCN=C1NS(=O)(=O)c2ccccc21)c1ccccc1,,inactive: -1.08%
Cc1c(C(c2cccc(Br)c2)c2c(C)n(C)n(-c3ccccc3)c2=O)c(=O)n(-c2ccccc2)n1C,"inconclusive: 16.4 µM [cytotoxic, partial curve]",
FC(F)(F)c1cnc2c(c1)[nH]c(=S)n2-c1ccc(Cl)cc1,"inconclusive: 29.1 µM [cytotoxic, single point]",
Cc1ccc(-c2nc(-c3cc4cccc(OCc5ccccc5F)c4oc3=O)no2)cc1,,inactive: 10.4%
Cc1cn(CC(C)C)c(=O)n(-c2ccccc2)c1=O,"inconclusive: 13 µM [cytotoxic, partial curve, poor fit]",
CCNc1nc(SCC(=O)Nc2ccc(Cl)c(Cl)c2)nc(N2CCOCC2)n1,"inconclusive: 6.51 µM [cytotoxic, partial curve, poor fit]",

Compound,Potency,"activity change, negative = cytotoxic"
COc1ccc(-c2nc3cc(C)c(Br)c(C)n3c2Cc2cccc(F)c2)cc1OC,,inactive: -2.57%
Cc1nc2ccc(NC(=O)Cc3ccc(Br)cc3)cc2s1,,inactive: -12%
Cc1ccc(S(=O)(=O)/N=C2/NC(=O)/C(=C/c3ccccc3)S2)cc1,,inactive: 0%
N#C/C(=C(/O)CSc1nnc(Cc2cccs2)n1C1CCCCC1)c1nc2ccccc2[nH]1,"inconclusive: 29.1 µM [rising, partial curve, poor fit]",
CCN(C(=O)COn1nnc2ccc(S(=O)(=O)N(C)C)cc21)C1CCS(=O)(=O)C1 (stereo not given),,inactive: 2.13%
Cc1n[nH]c(C)c1N=Nc1ccc(Br)cc1,active: 16.4 µM,
Cc1csc(N(C(=O)c2cccc(S(=O)(=O)N(C)C)c2)c2ccccc2)n1,"inconclusive: 16.4 µM [cytotoxic, partial curve, poor fit]",
CNC(=O)CS(=O)(=O)CC(=O)Nc1cc(OC(C)C)c(Cl)cc1Cl,"inconclusive: 29.1 µM [rising, single point]",
CC(=O)c1cccc(NS(=O)(=O)c2ccc(-c3cnc(C4CC4)o3)cc2)c1,"inconclusive: 2.06 µM [cytotoxic, partial curve, poor fit]",
O=S(=O)(Nc1ccc(C(F)(F)F)cc1)c1ccc2c(c1)OCCO2,"inconclusive: 4.61 µM [cytotoxic, full curve]",
O=C(NCCOc1ccccc1Cl)C(=O)Nc1ccccc1,"inconclusive: 20.6 µM [cytotoxic, single point]",
Cc1cccc(N2CCN(C(=O)CNC(=O)c3ccccc3)CC2)c1C,"inconclusive: 16.4 µM [cytotoxic, single point]",
O=Cc1c(-c2ccc(Cl)cc2)oc2ccc(O)cc12,"inconclusive: 20.6 µM [rising, single point]",
Cc1cc(Cn2nnc(-c3ccc(Br)cc3)n2)cc(C)c1O,,inconclusive: -0.8%
O=C(CNC(=O)c1ccccc1F)NCCOc1ccccc1Cl,,inactive: 2.9%
C/C(=N\NC(=O)C(N)=O)c1ccc(O)cc1O,,inactive: -6.78%
COc1cccc(/C=N/NC(=O)c2ccc(-c3ccccc3)cc2)c1O,active: 5.8 µM,
COc1cc(C(=O)NCCC2=CCCCC2)cc(OC)c1OC,,inactive: 8.87%
O=C(c1ccc2c(c1)N(Cc1ccc(Cl)cc1)C(=O)c1ccccc1S2=O)N1CCC(Cc2ccccc2)CC1 (stereo not given),"inconclusive: 23.1 µM [cytotoxic, single point]",
CCCn1cc(NC(=O)c2cc(-c3ccccc3)on2)cn1,,inactive: -13%
Cc1nc2ccccc2n1CCc1ccccc1,,inactive: -3.12%
CCOC(=O)/C(=N\Nc1ccc(C(C)=O)cc1)c1csc(Nc2ccccc2)n1,"inconclusive: 29.1 µM [cytotoxic, single point]",
CC1CCCCN1S(=O)(=O)c1ccc(C(=O)Nc2nnc(-c3ccccc3Cl)o2)cc1 (stereo not given),"inconclusive: 2.31 µM [cytotoxic, full curve, poor fit]",
Cc1cccc(C)c1N1CCN(C(c2ccnc3ccccc23)c2nnnn2-c2ccc3c(c2)OCCO3)CC1 (stereo not given),active: 20.6 µM,

# Given tab-delimited: part of the list above.
Compound	Potency	activity change, negative = cytotoxic
Cc1nc2ccc(NC(=O)Cc3ccc(Br)cc3)cc2s1		inactive: -12%
O=S(=O)(Nc1ccc(C(F)(F)F)cc1)c1ccc2c(c1)OCCO2	inconclusive: 4.61 µM [cytotoxic, full curve]	
COc1cc(C(=O)NCCC2=CCCCC2)cc(OC)c1OC		inactive: 8.87%

# Next structures follow:

Compound,Potency,"activity change, negative = cytotoxic"
Cn1c(=O)c([N+](=O)[O-])c(NCCCn2ccnc2)c2ccccc21,,inactive: 3.97%
COc1cccc(C(C)(O)c2nc(-c3ccccc3)cs2)c1 (stereo not given),"inconclusive: 29.1 µM [cytotoxic, single point]",
CCCN1CCc2c(sc3nc(SC)n(-c4ccccc4)c(=O)c23)C1,,inactive: -10.2%
OC1(C#Cc2c(-c3ccsc3)oc3ccc(N4CCOCC4)cc23)CCCCC1,"inconclusive: 20.6 µM [cytotoxic, single point]",
O=C(CCl)N1CCN(S(=O)(=O)c2ccc3c(c2)CCC3)CC1,"inconclusive: 25.9 µM [cytotoxic, single point]",
CC(C)(C)c1ccc(C(=O)Nc2cccc3c(=O)[nH][nH]c(=O)c23)cc1,"inconclusive: 25.9 µM [rising, partial curve, poor fit]",
CC1=C(C(=O)Nc2ccccc2)C(c2ccc[nH]2)n2ncnc2N1 (stereo not given),"inconclusive: 2.59 µM [rising, single point]",
NC(=O)c1cccnc1Oc1ccc(Cl)cc1Cl,"inconclusive: 23.1 µM [rising, single point]",
O=C1CC(c2ccccc2)Cc2[nH]c(=O)c(C(=O)O)cc21 (stereo not given),"inconclusive: 23.1 µM [rising, partial curve]",
CN1CCN(c2ccc(CNS(=O)(=O)Cc3cccc(C(F)(F)F)c3)cc2)CC1,"inconclusive: 29.1 µM [cytotoxic, single point]",
COc1cc(/C=C2\N=C(c3ccccc3)NNC2=O)cc(OC)c1OC,active: 4.61 µM,
NNC(=O)c1sc(-c2ccccc2)cc1N,,inactive: -19.4%
CC(C(=O)O)N1C(=O)C2C3CC(C2C1=O)C1C(c2ccccc2)c2sc(=O)[nH]c2SC31 (stereo not given),"inconclusive: 11.6 µM [rising, partial curve, poor fit]",
CCOC(=O)N1CCN(CC(O)c2c[nH]c3ccccc23)CC1 (stereo not given),"inconclusive: 29.1 µM [cytotoxic, single point]",
Cc1nc(Nc2nc(-c3ccccc3)cc(=O)[nH]2)nc2ccccc12,"inconclusive: 20.6 µM [cytotoxic, single point]",
CCOC(=O)c1ccc(-c2ccc(/C=N/NC(=O)CN(c3ccccc3Cl)S(C)(=O)=O)o2)cc1,"inconclusive: 20.6 µM [cytotoxic, single point]",
N#CC(=Cc1ccc(O)cc1)C(N)=C(C#N)C#N,,inconclusive: 0%
Cc1ccc(NC(=O)NC2CCCCC2)cc1S(=O)(=O)N1CCOCC1,"inconclusive: 29.1 µM [cytotoxic, single point]",
COc1cccc(-c2nnc(SCC(=O)N3CC(C)CC(C)C3)o2)c1 (stereo not given),"inconclusive: 10.3 µM [cytotoxic, partial curve, poor fit]",
N#CCn1c(CN2CCCC2)nc2ccccc2c1=O,,inactive: 19.3%
CN1CCN(c2nc(Nc3cccc(C(F)(F)F)c3)nc(N3CCOCC3)n2)CC1,"inconclusive: 29.1 µM [cytotoxic, single point]",
O=C(NC(Cc1c[nH]c2ccccc12)C(=O)Nc1ccc(F)c([N+](=O)[O-])c1)c1cccs1 (stereo not given),"inconclusive: 18.4 µM [cytotoxic, single point]",
